Paper PMC7819943, “Rice protein-binding microarrays: a tool to detect cis-acting elements near promoter regions in rice”
The other results are listed elsewhere or left out.

Molecular target: T1, OsSMF1 (Oryza sativa, UniProt Q6ZLB0 1-436)
T1 sequence: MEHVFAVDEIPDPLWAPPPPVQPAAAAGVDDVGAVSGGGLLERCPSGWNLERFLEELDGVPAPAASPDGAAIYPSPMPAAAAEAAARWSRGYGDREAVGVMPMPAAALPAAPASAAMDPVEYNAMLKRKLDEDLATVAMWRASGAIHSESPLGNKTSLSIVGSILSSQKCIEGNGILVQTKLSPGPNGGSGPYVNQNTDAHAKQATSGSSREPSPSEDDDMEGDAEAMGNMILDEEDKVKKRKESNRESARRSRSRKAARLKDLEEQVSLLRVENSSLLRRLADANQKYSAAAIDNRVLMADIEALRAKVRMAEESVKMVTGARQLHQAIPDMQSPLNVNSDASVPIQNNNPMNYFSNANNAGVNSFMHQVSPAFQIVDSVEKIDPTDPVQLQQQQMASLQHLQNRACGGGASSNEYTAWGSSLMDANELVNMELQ
Experiment: protein-binding microarray (RPBM); PBS, 2% BSA, 51.3 ng/ul salmon testes DNA, 50 uM zinc acetate, 200 nM TF, 25 C, 1 h; high values mean tight binding
Conditions: protein: recombinant; tags: N-terminal polyhistidine and DsRed monomer fusion (pET32a); chain copies: 2; label: CyDye5-dUTP incorporated in the synthesized complementary strand; 3' TTTTT single-stranded linker to array surface; dsDNA, one strand shown
Procedure, shortened: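 For the binding signal, per-feature fluorescence intensity was read in arbitrary units on an Axon 4000B scanner. Before scanning, a 2% BSA-blocked custom Agilent array made double-stranded with Cy5-dUTP was washed after 1 h at 25 °C with 200 nM protein and 50 µM zinc acetate. The proteins were Ni–NTA-purified transcription factors with N-terminal polyhistidine and DsRed fusions, expressed in E. coli BL21-CodonPlus.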

| Sequence | binding signal |
| --- | --- |
| AATCCCTTAGGATTTCTTACCGAACTTGTACAAACACCTACGGAGTCACCTAGTGCAG | 18900 fluorescence intensity (a.u.) |
| TTAGTGGCAAGAGATGTAAGAAACAAAATCCCCACATGGACGGAGTCACCTAGTGCAG | 3210 fluorescence intensity (a.u.) |
| CCGGCCTAACCAGGAAATTGCAGACTTGACTCGTCACTTGCGGAGTCACCTAGTGCAG | 4100 fluorescence intensity (a.u.) |
| TATAACTCGCGTATTTGTAGGATGCTATTATACAGTTTTCCGGAGTCACCTAGTGCAG | 3490 fluorescence intensity (a.u.) |
| ACCAGTACCTGAATTATCAGAAATTGATCATTTGCGTAATCGGAGTCACCTAGTGCAG | 13900 fluorescence intensity (a.u.) |
| TTAATTAGCATTTGGTTGGATTGTGGCAGGTGACAGTGCGCGGAGTCACCTAGTGCAG | 3170 fluorescence intensity (a.u.) |
| CCCATGTGGCCACGTATGGTGGAAAATGAACATCCTTGTTCGGAGTCACCTAGTGCAG | 4600 fluorescence intensity (a.u.) |
| GATAGCGATGTGGAGTTTGAGATGGCTATGGAGGCATGTGCGGAGTCACCTAGTGCAG | 4350 fluorescence intensity (a.u.) |
| CGAATGTACGGTCTGCCTAGTGGCGGAAGCTAGTATCCTTCGGAGTCACCTAGTGCAG | 3180 fluorescence intensity (a.u.) |
| TCGTTCGTTCATCTAACTGCACGTCACGCCCTCCGCGTGTCGGAGTCACCTAGTGCAG | 9890 fluorescence intensity (a.u.) |
| AGGCATATTTTGGAATAGCAGAGGTCTCGGTGACTTGGCTCGGAGTCACCTAGTGCAG | 3460 fluorescence intensity (a.u.) |
| ACGGTTTGCTTCGCCACACGCGCACAGAAACACACACACACGGAGTCACCTAGTGCAG | 3380 fluorescence intensity (a.u.) |
| AATTAACCTGGCAGCTGATACACGTACTCTTGCTTTGGCCCGGAGTCACCTAGTGCAG | 5300 fluorescence intensity (a.u.) |
| AGGAAGCATGGTGGTGGTCGTCGTGGCATGGATGGCGTCTCGGAGTCACCTAGTGCAG | 4890 fluorescence intensity (a.u.) |
| CAGTGATCCTATTCGAAAACTTCACGCCTCCGACACGTGGCGGAGTCACCTAGTGCAG | 9740 fluorescence intensity (a.u.) |
| TCATCATCATCATCATTATTAAAGTAAATTTCAGAAAACTCGGAGTCACCTAGTGCAG | 21600 fluorescence intensity (a.u.) |
| AATGATAAAATTTTAATTAATCATATGCTAATGACTTACTCGGAGTCACCTAGTGCAG | 3230 fluorescence intensity (a.u.) |
| TGCCAGAGGGATCTAAATATGGCCTTAGTATTATTCCGTGCGGAGTCACCTAGTGCAG | 8170 fluorescence intensity (a.u.) |
| CTCTCTCCTATCCTCCTTCTTCCTCACGCACGTGGCGGAGCGGAGTCACCTAGTGCAG | 4310 fluorescence intensity (a.u.) |
| AAATATTTATTGAAAAGTGATATGTGTATACTTTTATGAACGGAGTCACCTAGTGCAG | 21800 fluorescence intensity (a.u.) |
| TTGTTGAAGCAGTTTAATGTTAATAGTATACTAACATTAACGGAGTCACCTAGTGCAG | 28600 fluorescence intensity (a.u.) |

| Sequence | binding signal |
| --- | --- |
| AACCATCATCATTCATCACCAATCATGAGATCCACTCCCCCGGAGTCACCTAGTGCAG | 3280 fluorescence intensity (a.u.) |
| CATCGAGCACGAGTATGACTCGATGTATAATGTCGTATATCGGAGTCACCTAGTGCAG | 3360 fluorescence intensity (a.u.) |
| TTGAACATGATTTGTGGTGGGTGGAGTGATTTATGTCATTCGGAGTCACCTAGTGCAG | 3460 fluorescence intensity (a.u.) |
| GCCGCGCCGCCTCGCCCGACGTCGTAGCAACCAAGCCACCCGGAGTCACCTAGTGCAG | 3460 fluorescence intensity (a.u.) |
| CTGAAAATCTTGTTCTGAATTCCAATAGAAAAGTTATTCTCGGAGTCACCTAGTGCAG | 3540 fluorescence intensity (a.u.) |
| AATCGTGCTATACGTCCATTCTCCACGTGGCATGCCAGGTCGGAGTCACCTAGTGCAG | 24200 fluorescence intensity (a.u.) |
| ACAAGTGGGCCAAGAAGAACACGTCCTACTTGAAAGTGTGCGGAGTCACCTAGTGCAG | 3310 fluorescence intensity (a.u.) |
| GCTGGCTGCAAGACGACGACGGATGATGCGACGGCGCGGCCGGAGTCACCTAGTGCAG | 3220 fluorescence intensity (a.u.) |
| GTGGCCCACCTGCAGCGTCACGCATCCTCGGAGGAGCAGGCGGAGTCACCTAGTGCAG | 4960 fluorescence intensity (a.u.) |
| CGCCGCACGATCAAACTGCCGGTGTGGCAGTAGCAGCAGCCGGAGTCACCTAGTGCAG | 3580 fluorescence intensity (a.u.) |
| TGACTTCGAACGCATTTGTCACCGCGACGTGCCAGCCAAACGGAGTCACCTAGTGCAG | 4170 fluorescence intensity (a.u.) |
| ACGGGGCAGAATCACCGATTTGCCGTCACGTCCACACTCCCGGAGTCACCTAGTGCAG | 3650 fluorescence intensity (a.u.) |
| CATAGAATGTGTATCGGTTAGTCGTGAGGCAACTCATGCACGGAGTCACCTAGTGCAG | 34600 fluorescence intensity (a.u.) |
| CGCTGGACGCCGCCAGATCTGCTGCTCGTCGCCGCGTGGGCGGAGTCACCTAGTGCAG | 3480 fluorescence intensity (a.u.) |
| CAGTGCTCCCTGCTGTCCACGCCGGCGCCGCGCCTCCCCACGGAGTCACCTAGTGCAG | 3330 fluorescence intensity (a.u.) |
| TCGCCGCCGGAAAGGGGATATGAGGTGGCGGAGATTCTTGCGGAGTCACCTAGTGCAG | 5660 fluorescence intensity (a.u.) |
| CCATTGTCCCCGCCGTCCCCGCCGTCCACGCCGGCGCCGCCGGAGTCACCTAGTGCAG | 3690 fluorescence intensity (a.u.) |
| GATTTGCAGGCGCGCATTGATGAGAACGGTGACGGGGCAGCGGAGTCACCTAGTGCAG | 6160 fluorescence intensity (a.u.) |
| TCGGCCCAATTACCCCATTCCGTCCAACTCCAACTCATCCCGGAGTCACCTAGTGCAG | 3880 fluorescence intensity (a.u.) |
| GAGACTTCTTAGTCTACACACATCATCACTATCAACTACTCGGAGTCACCTAGTGCAG | 4070 fluorescence intensity (a.u.) |
| TACAAAACAAATATTGTATTAAAATATAGTCAACGTTAAACGGAGTCACCTAGTGCAG | 8390 fluorescence intensity (a.u.) |

Look-ups from the list.
Value of CAGTGCTCCCTGCTGTCCACGCCGGCGCCGCGCCTCCCCACGGAGTCACCTAGTGCAG under binding signal: 3330 fluorescence intensity (a.u.)
Value of TCGTTCGTTCATCTAACTGCACGTCACGCCCTCCGCGTGTCGGAGTCACCTAGTGCAG under binding signal: 9890 fluorescence intensity (a.u.)
Value of CGCCGCACGATCAAACTGCCGGTGTGGCAGTAGCAGCAGCCGGAGTCACCTAGTGCAG under binding signal: 3580 fluorescence intensity (a.u.)
Value of CGCTGGACGCCGCCAGATCTGCTGCTCGTCGCCGCGTGGGCGGAGTCACCTAGTGCAG under binding signal: 3480 fluorescence intensity (a.u.)
